The full ranking holds about 3,200 compounds; the median of “TSA(with NAD+) / Primary screening (TSA) / delta Tm (K)” is about -0.04, and the highest 2% start at about 0.37. The list shows a part of the results.
Target: NAD-dependent deacetylase Sirtuin 1 (human, UniProt Q96EB6)
Assay: primary screen, delta tm
Parameters: single well (n = 1, as 'the same TSA')
Settings: 10 µM

The chains behind the UniProt entries cited, without tags or fusion partners. Residues count along the entry.
UniProt Q96EB6, 2-747 limits assumed: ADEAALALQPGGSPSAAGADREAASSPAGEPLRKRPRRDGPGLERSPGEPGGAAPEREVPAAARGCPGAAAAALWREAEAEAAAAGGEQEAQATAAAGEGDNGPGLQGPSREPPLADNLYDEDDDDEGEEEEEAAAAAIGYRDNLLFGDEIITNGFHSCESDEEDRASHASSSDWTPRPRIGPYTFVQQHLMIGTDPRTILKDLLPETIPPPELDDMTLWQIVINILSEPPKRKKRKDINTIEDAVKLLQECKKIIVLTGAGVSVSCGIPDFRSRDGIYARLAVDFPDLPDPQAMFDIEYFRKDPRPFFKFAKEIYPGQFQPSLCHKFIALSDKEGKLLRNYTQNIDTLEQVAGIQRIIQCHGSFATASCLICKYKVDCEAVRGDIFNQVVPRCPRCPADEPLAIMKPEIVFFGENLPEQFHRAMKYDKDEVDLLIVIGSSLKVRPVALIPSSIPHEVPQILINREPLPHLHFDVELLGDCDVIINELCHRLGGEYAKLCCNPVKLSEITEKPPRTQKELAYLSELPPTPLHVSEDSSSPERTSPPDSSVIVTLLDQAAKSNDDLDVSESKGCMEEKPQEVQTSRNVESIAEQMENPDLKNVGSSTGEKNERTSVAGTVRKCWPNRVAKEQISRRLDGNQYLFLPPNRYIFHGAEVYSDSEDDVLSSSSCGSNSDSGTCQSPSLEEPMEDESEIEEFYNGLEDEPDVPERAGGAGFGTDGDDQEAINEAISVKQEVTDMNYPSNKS

| Compound | TSA(with NAD+) / Primary screening (TSA) / delta Tm (K) |
| --- | --- |
| Cc1ccnc(NC(=O)C2CCN(c3nc(C)nc4scc(-c5cccs5)c34)CC2)c1 | -0.15 |
| CC(=C/c1ccccc1)/C=N/NC(=O)c1cc(-c2ccc(C)cc2)n[nH]1 | 1.11 |
| CC(C)Cc1ccc(C(=O)C2CCN(C(=O)c3cnc4ccccc4n3)CC2)cc1 | -0.03 |
| O=C(NCc1ccc(-n2cnc3ccccc32)nc1)c1ccc2[nH]cnc2c1 | 0.02 |
| Cc1cc(N(C)C)n2nc(C(F)(F)F)c(-c3ccccc3)c2n1 | -0.05 |
| ClC1=Nc2c(cnn2-c2ccccc2)CN1 | -0.09 |
| O=C(O)c1cccc(CNC(=O)c2ccc3[nH]ccc3c2)c1 | -0.11 |
| Cc1ccc(C23CC4CC(CC(C(=O)N5CCN(S(=O)(=O)Cc6ccccc6)CC5)(C4)C2)C3)cc1 | -0.08 |
| N#Cc1ccc(NCC2CCN(c3ncnc4ccsc34)C2)nc1 (stereo not drawn) | -0.08 |
| Cc1cc(C)c2c(n1)sc1c(N3CCN(CCO)CC3)ncnc12 | 0.18 |
| COc1ccc(C)c2c1N(C(=O)c1cccc(-n3cnnn3)c1)CCC2 | -0.13 |
| CS(=O)(=O)c1cccc(C(=O)N(Cc2ccccc2)c2ccccc2)c1 | 0.11 |
| CCS(=O)(=O)NC(C)C(=O)O (stereo not drawn) | 0.08 |
| Cc1ccsc1CN(C)C(=O)CCc1nc2ccccc2n(CCc2ccccc2)c1=O | 0.06 |
| CCCn1nnnc1CN1C(=O)NC(Cc2c[nH]c3ccccc23)C1=O (stereo not drawn) | -0.21 |
| O=c1[nH]c2sc3c(c2c2nc(-c4ccc(Br)cc4)nn12)CCCCC3 | 0.13 |
| Cc1ccc(C(=O)C2=C(O)C(=O)N(CCCN3CCOCC3)C2c2cccc(Br)c2)cc1 (stereo not drawn) | 0.05 |
| COCc1cc(NCc2cnn(Cc3ccccc3)c2)n2ncnc2n1 | 0.03 |
| CCC(=O)N(c1nnc(SCC(=O)c2ccc(-c3ccccc3)cc2)s1)C1CC1 | -0.02 |
| Cn1ccc(CC(=O)Nc2nc(-c3cc(C(N)=O)co3)cs2)n1 | -0.15 |
| CCOc1ccc(NC(=O)CN(C)Cc2ccc(C(=O)Nc3ccccc3)cc2)cc1OCC | -0.02 |
| CCC(C)c1ccc(NC(=O)C(C#N)C(=O)c2cncc(F)c2)cc1 (stereo not drawn) | 0.18 |
| Nc1ncc(Cc2ccc(Br)cc2)s1 | -0.11 |
| CC(CNC(=O)C1CCCN1C(=O)c1ccc2c(c1)OCO2)N(C)C (stereo not drawn) | -0.16 |

| Compound | TSA(with NAD+) / Primary screening (TSA) / delta Tm (K) |
| --- | --- |
| Cc1ccccc1CN1CCN(C(C)C(=O)Nc2sccc2C(N)=O)CC1 (stereo not drawn) | -0.09 |
| O=C(OCc1cccc(C(F)(F)F)c1)c1cnc2sccn2c1=O | -0.09 |
| COc1ccc(CN2CCN(c3ncnc4sc5c(c34)CCCCC5)CC2)cc1 | -0.21 |
| Cn1cc(C2CCNC2)c2ccccc21 (stereo not drawn) | 0.01 |
| N#C/C(=C/c1ccc(-c2cccc(Cl)c2Cl)o1)C(=O)Nc1cccc2ncccc12 | -0.19 |
| CN1/C(=C/C=C2C(=O)NC(=S)NC2=O)C(C)(C)c2ccccc21 | -0.01 |
| Cc1nc(C)c(-c2nnc(SCC(=O)N3CCN(Cc4cccs4)CC3)o2)s1 | -0.05 |
| O=C1c2ccccc2NC2(CCCCC2)N1c1ccc2c(c1)OCCO2 | 0.06 |
| O=C1NC(=O)c2ccccc2/C1=C\NNC(=O)C12CC3CC(CC(C3)C1)C2 | 0.48 |
| COc1cccc(N2C(=O)NC(=O)C2=O)c1 | -0.18 |
| Cc1ccc(C2CCCN2)cc1 (stereo not drawn) | -0.04 |
| Cc1cccn2cc(CSc3nc4ccsc4c(=O)n3C)nc12 | -0.29 |
| Nc1nc(COC(=O)c2cccc(NC(=O)c3cccs3)c2)nc(Nc2ccccc2)n1 | 0.42 |
| O=C(Nc1ccccc1Cc1ccccc1)c1ccc2ccccc2c1 | -0.01 |
| CC(C)(C)c1noc(CCCC(=O)Nc2ccc(F)c(C(N)=O)c2)n1 | -0.01 |
| CCC(=O)N1N=C(c2cccs2)CC1c1ccc(OC)cc1 (stereo not drawn) | -0.22 |
| NC(=O)c1ccc(C(=O)OCC(=O)Nc2ccccc2-c2ccccc2)cc1 | 0.25 |
| CN(c1ccccc1)S(=O)(=O)c1cccc(C(=O)Nc2ccccc2C(F)(F)F)c1 | 0.07 |
| O=C(NC1CCCc2ccccc21)C(c1ccccc1)c1ccccc1 (stereo not drawn) | -0.11 |
| COc1ccc(S(=O)(=O)Nc2ccccc2OC)cc1NN=C1C(=O)NC(=S)NC1=O | 0.05 |
| Cc1ccc(-n2ccnc2SCC(=O)N(CCC(N)=O)Cc2ccccc2)c(C)c1 | 0.01 |
| Cc1ccc(C(=O)C2=C(O)C(=O)N(CCCN3CCOCC3)C2c2ccc(OC(C)C)cc2)cc1 (stereo not drawn) | -0.01 |
| COCC(C)N (stereo not drawn) | -0.04 |
| O=C(CCn1[nH]c(=O)ccc1=O)Nc1nc2ccccc2s1 | 0.01 |

| Compound | TSA(with NAD+) / Primary screening (TSA) / delta Tm (K) |
| --- | --- |
| O=C(CSc1nccn1Cc1ccccn1)c1cccc(OC(F)F)c1 | -0.13 |
| CC(C)(C)OC(=O)N1CCCC1C(=O)N1CCN(c2cnccn2)CC1 (stereo not drawn) | -0.09 |
| N#Cc1c(=O)c2cccnc2n2c1[nH]c1ccccc12 | -0.03 |
| NCCOCC(=O)O | -0.13 |
| C=C(C)CCN | -0.21 |
| O=C(CSc1nnc(NCC2CCCO2)s1)Nc1nc(-c2cc(F)ccc2F)cs1 (stereo not drawn) | 0.01 |
| CCOc1ccc(-n2c(C)cc(C(=O)COc3ccccc3C(N)=O)c2C)cc1 | -0.18 |
| CCCOc1ccc(C2C(C(=O)/C=C/c3ccco3)=C(O)C(=O)N2CCCN2CCOCC2)cc1 (stereo not drawn) | -0.06 |
| c1ccc(CN2CCCCCC2)c(CNc2ccc3nnnn3n2)c1 | -0.04 |
| COc1ccc2cc(CN(C)CC(=O)Nc3ccc(C)cc3)ccc2c1 | 0.03 |
| CCC(C)c1ccccc1NC(=O)Cc1coc2cc3c(cc12)CCC3 (stereo not drawn) | -0.03 |
| CCc1ccc(N(C(C)=O)c2nc(COC(=O)CNC(=O)C34CC5CC(CC(C5)C3)C4)cs2)cc1 | -0.13 |
| CCOc1ccc2[nH]c(SCC(=O)N3CCCCC3C(N)=O)nc2c1 (stereo not drawn) | -0.05 |
| CC(OC(=O)CCC(=O)c1ccc(F)cc1)C(=O)Nc1ccc(C(N)=O)cc1 (stereo not drawn) | -0.06 |
| Cc1cc(CNc2ccc(Cl)cc2C(N)=O)no1 | 0.01 |
| COc1cc(/C=N/NC(=O)c2cc3c(s2)CCCC3)ccc1OCC(=O)Nc1ccc(C)cc1 | 0.52 |
| CC1CCc2[nH]c3ccc(C(=O)NC4CC4)cc3c2C1 (stereo not drawn) | 0.07 |
| O=C(Cn1ccc(=O)c2ccccc21)Nc1ccc(N2CCCCC2)nc1 | -0.08 |
| O=C1CCCN1c1ccc(O)cc1 | -0.11 |
| O=C(CSc1nc(-c2ccccc2)c(-c2ccccc2)o1)c1c[nH]c(C(=O)N2CCCC2)c1 | 0.07 |
| O=C(O)c1ccc2[nH]c3c(c2c1)CCCC3 | -0.11 |
| Cc1ccccc1N1C(=O)c2ccc(C(=O)OCC(N)=O)cc2C1=O | -0.15 |
| O=C(CCCn1c(=O)oc2cc([N+](=O)[O-])ccc21)N1CCN(Cc2ccc(Cl)s2)CC1 | -0.22 |
| Cc1c(F)cc(C(N)=O)cc1NCC(=O)Nc1ccc([N+](=O)[O-])cc1 | -0.04 |

Random excerpt: 3 records from the list, in no set order.

| Compound | TSA(with NAD+) / Primary screening (TSA) / delta Tm (K) |
| --- | --- |
| Cc1cc(CNc2ccc(Cl)cc2C(N)=O)no1 | 0.01 |
| CCOc1ccc2[nH]c(SCC(=O)N3CCCCC3C(N)=O)nc2c1 (stereo not drawn) | -0.05 |
| CCc1ccc(N(C(C)=O)c2nc(COC(=O)CNC(=O)C34CC5CC(CC(C5)C3)C4)cs2)cc1 | -0.13 |

Next part.

| Compound | TSA(with NAD+) / Primary screening (TSA) / delta Tm (K) |
| --- | --- |
| CN(c1ccccc1)S(=O)(=O)c1cccc(NC(=O)CNc2cccc3ccccc23)c1 | 0.41 |
| O=C1CCN(c2ncnc3cc(Cl)ccc23)CCN1 | 0.09 |
| O=C(NCCN1CCN(c2ccc(F)cc2)CC1)c1cc[nH]n1 | -0.08 |
| CC(C)C(CNc1ccc2nnnn2n1)N1CCc2ccccc2C1 (stereo not drawn) | -0.11 |
| Cc1cccc(N(Cc2ccccc2)C(=O)COC(=O)C23CC4CC(CC(O)(C4)C2)C3)c1 | -0.01 |
| COc1cccc(C2C(C(=O)c3ccc(Cl)cc3)=C(O)C(=O)N2CCCN2CCOCC2)c1 (stereo not drawn) | -0.08 |
| Cn1c(-c2ccccc2)cc2ccccc21 | -0.01 |
| Cn1cc(C(=O)O)c(-c2cccnc2)n1 | 0.06 |
| NC(=O)C1NCCc2c(N)cccc21 (stereo not drawn) | -0.09 |
| CCOc1cccc(C2C(C(=O)c3sc(C)nc3C)=C(O)C(=O)N2CCCN2CCOCC2)c1 (stereo not drawn) | -0.13 |
| COc1ccc(N(C)S(=O)(=O)c2cccc(C(=O)N(C)CCOc3ccc(F)cc3)c2)cc1 | 0.05 |
| CN(c1ccccc1)S(=O)(=O)c1cccc(NC(=O)COc2ccc3oc4ccccc4c3c2)c1 | -0.43 |
| CCOc1ccc(C2C(C(=O)c3ccc(Cl)cc3)=C(O)C(=O)N2CCCN2CCOCC2)cc1 (stereo not drawn) | -0.02 |
| O=C(COC(=O)c1cccc(S(=O)(=O)NCc2ccccc2)c1)NC12CC3CC(CC(C3)C1)C2 | -0.25 |
| O=c1oc2cc(O)ccc2cc1-c1csc(-c2cc3c(ccc4ccccc43)oc2=O)n1 | 0.09 |
| O=C(CSc1ccccc1C(=O)Nc1ccccc1N1CCOCC1)NC12CC3CC(CC(C3)C1)C2 | -0.05 |
| NNC(=O)CCN1CCCCCC1 | -0.13 |
| COc1cc(C#N)cc(OC)c1OC | 0.06 |
| CCC(CNc1nc(-c2ccncc2)nc2ccccc12)N1CCCC1 (stereo not drawn) | -0.01 |
| Cc1ccc(-c2cc(C(=O)OC(C)C(=O)Nc3cccc([N+](=O)[O-])c3)[nH]n2)cc1 (stereo not drawn) | 0.25 |
| O=C(CC12CC3CC(CC(O)(C3)C1)C2)N1CC=C(c2ccc(O)cc2)CC1 | -0.11 |
